In patent publication US6911418B2, “Method for treating a subterranean formation” (Schlumberger Technology Corporation, priority 2001, dated 2005):
Read-outs that look alike come from different tables or passages of the source.

Test: coreflood test, pore volume to breakthrough (PVbt)

## CC(=O)ON(CCN(OC(C)=O)OC(C)=O)OC(C)=O.N.N.N.N [tetraammonium ethylenediamine tetraacetate]
149° C., 5 ml per minute, 22 percent solutions, FIG. 2
  PVbt compared with 20 percent tetrasodium ethylenediamine tetraacetate solution: lower PVbt

## dipotassium ethylenediamine tetraacetate
  pore volume to breakthrough (PVbt): about 22

## tetrasodium ethylenediamine tetraacetate
66° C., injection rate 5.0 ml/min, 20 percent tetrasodium, 28 percent dipotassium, 22 percent diammonium EDTA solutions, estimated from permeability/time curve
  pore volume to breakthrough (PVbt): about 30
